Results as given in patent US9545447B2, “Polymer-drug systems” (THE TEXAS A&M UNIVERSITY SYSTEM, priority 2013, dated 2017).

Test system: A549 cells, a human lung carcinoma cell line
Assay: Cell viability (WST-1), A549 cells
Format: cell-based
Settings: Table 1, 72 h, PTX as free PTX
Procedure: Polymer paclitaxel and free paclitaxel were tested in KB cells, a human nasal pharyngeal cancer cell line and A549 cells, a human lung carcinoma cell line. KB and A549 cells (ATCC, Manassas, Va.) were maintained in monolayer cultures in folate free RPMI (Life Technologies, Carlsbad, Calif.) and F-12K media (Mediatech, Manassas, Va.) respectively, supplemented with 10% fetal bovine serum and penicillin/streptomycin antibiotics. For screening purposes 2,500 cells in 100 μL of complete cell culture media were plated in a 96 well plate (Corning, Lowell, Mass.) in triplicates and were then incubated for 24 h in a humidified CO2 cell culture incubator maintained at 37° C. Serial dilutions of polymer-paclitaxel conjugates and paclitaxel were prepared in PBS and added to cells in a volume of 10 μL. The cells were either incubated for a short period of 2 h or for longer continuous incubation of 72 h. After 2 h incubation, the media was replaced with 110 μL of fresh complete RPMI. Cell viability was assessed by using a colorimetric WST-1 cell proliferation kit (Roche, Indianapolis, Ind.) and following manufacturer's instructions. Cell viability was calculated as a percentage of the control cells treated with no drugs. […]

IC50: 0.287 µM
Structure (SMILES): CC(=O)O[C@H]1C(=O)[C@@]2(C)[C@H]([C@H](OC(=O)c3ccccc3)[C@]3(O)C[C@H](OC(=O)[C@H](O)[C@@H](NC(=O)c4ccccc4)c4ccccc4)C(C)=C1C3(C)C)[C@]1(OC(C)=O)CO[C@@H]1C[C@@H]2O [PTX, paclitaxel]
